This note sets out measurements from ChEMBL document CHEMBL5674883, “The Heterochromatin Landscape in Migrating Cells and the Importance of H3K27me3 for Associated Transcriptome Alterations” (Cells, 2018).

Protein sequences, listed by entry. Tags and fused reporters are not part of them.
UniProt Q61188, whole entry: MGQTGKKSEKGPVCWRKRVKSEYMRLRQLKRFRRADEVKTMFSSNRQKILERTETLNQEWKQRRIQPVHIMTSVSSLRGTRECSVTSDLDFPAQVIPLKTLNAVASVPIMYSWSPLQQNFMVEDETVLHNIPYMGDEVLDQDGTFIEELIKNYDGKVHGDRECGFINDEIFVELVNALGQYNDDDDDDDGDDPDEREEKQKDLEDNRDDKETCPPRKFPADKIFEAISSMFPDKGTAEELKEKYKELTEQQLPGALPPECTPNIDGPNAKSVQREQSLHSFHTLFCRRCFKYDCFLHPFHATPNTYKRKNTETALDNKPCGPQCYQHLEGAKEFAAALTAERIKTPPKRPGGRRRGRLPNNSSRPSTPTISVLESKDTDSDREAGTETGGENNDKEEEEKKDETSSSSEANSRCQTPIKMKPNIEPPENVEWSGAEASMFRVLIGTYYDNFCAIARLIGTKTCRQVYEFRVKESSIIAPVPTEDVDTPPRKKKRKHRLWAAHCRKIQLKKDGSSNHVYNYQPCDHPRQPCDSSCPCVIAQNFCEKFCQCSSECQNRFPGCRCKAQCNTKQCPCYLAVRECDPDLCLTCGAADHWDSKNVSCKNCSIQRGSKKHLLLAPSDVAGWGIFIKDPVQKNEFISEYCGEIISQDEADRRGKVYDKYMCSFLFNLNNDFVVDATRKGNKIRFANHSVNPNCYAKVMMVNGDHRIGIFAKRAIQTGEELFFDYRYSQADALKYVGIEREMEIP

The source gives many values for each of these; only a part stands here.

Common to all, as to type: cell-based
The target in assay [1] is T1, RNA polymerase II (Mus musculus) (UniProt P08775+Q8CFI7+P97760+A0A3Q4L2S8+Q80UW8+P61219+P62488+Q923G2+P60898+O08740+Q63871+P62876). As to the kind of experiment: Inhibition of RNA polymerase II in mouse B16-F1 migrating cells assessed as fold change in Gabarap-RNA stability at 0.1 mM measured by ChIP-seq analysis relative to control cells.
Assay [2] has as its target T1, RNA polymerase II (Mus musculus). As to the kind of experiment: Inhibition of RNA polymerase II in mouse B16-F1 migrating cells assessed as fold change in Rnf181-RNA stability at 0.1 mM measured by ChIP-seq analysis relative to control cells.
Assay [3] has the same target. Nature of the assay: Inhibition of RNA polymerase II in mouse B16-F1 migrating cells assessed as fold change in Map2k2-RNA stability at 0.1 mM measured by ChIP-seq analysis relative to control cells.
The target is the same in assay [4]. As to the kind of experiment: Inhibition of RNA polymerase II in mouse B16-F1 migrating cells assessed as fold change in Ufc1-RNA stability at 0.1 mM measured by ChIP-seq analysis relative to control cells.
The target is the same in assay [5]. Nature of the assay: Inhibition of RNA polymerase II in mouse B16-F1 migrating cells assessed as fold change in Etf1-RNA stability at 0.1 mM measured by ChIP-seq analysis relative to control cells.
Assay [6] shares this target. As to the kind of experiment: Inhibition of RNA polymerase II in mouse B16-F1 migrating cells assessed as fold change in Surf6-RNA stability at 0.1 mM measured by ChIP-seq analysis relative to control cells.
The target is the same in assay [7]. Nature of the assay: Inhibition of RNA polymerase II in mouse B16-F1 migrating cells assessed as fold change in Cdh19-RNA stability at 0.1 mM measured by ChIP-seq analysis relative to control cells.
The target is the same in assay [8]. Nature of the assay: Inhibition of RNA polymerase II in mouse B16-F1 migrating cells assessed as fold change in Herc4-RNA stability at 0.1 mM measured by ChIP-seq analysis relative to control cells.
Assay [9] has the same target. Nature of the assay: Inhibition of RNA polymerase II in mouse B16-F1 migrating cells assessed as fold change in Rnf169-RNA stability at 0.1 mM measured by ChIP-seq analysis relative to control cells.
Assay [10] shares this target. As to the kind of experiment: Inhibition of RNA polymerase II in mouse B16-F1 migrating cells assessed as fold change in Crkl-RNA stability at 0.1 mM measured by ChIP-seq analysis relative to control cells.
Assay [11] has the same target. As to the kind of experiment: Inhibition of RNA polymerase II in mouse B16-F1 migrating cells assessed as fold change in Gk-RNA stability at 0.1 mM measured by ChIP-seq analysis relative to control cells.
Assay [12] shares this target. As to the kind of experiment: Inhibition of RNA polymerase II in mouse B16-F1 migrating cells assessed as fold change in Syde2-RNA stability at 0.1 mM measured by ChIP-seq analysis relative to control cells.
Assay [13] has the same target. Nature of the assay: Inhibition of RNA polymerase II in mouse B16-F1 migrating cells assessed as fold change in Pcm1-RNA stability at 0.1 mM measured by ChIP-seq analysis relative to control cells.
The target is the same in assay [14]. Nature of the assay: Inhibition of RNA polymerase II in mouse B16-F1 migrating cells assessed as fold change in Nxt2-RNA stability at 0.1 mM measured by ChIP-seq analysis relative to control cells.
Assay [15] shares this target. Nature of the assay: Inhibition of RNA polymerase II in mouse B16-F1 migrating cells assessed as fold change in Nid2-RNA stability at 0.1 mM measured by ChIP-seq analysis relative to control cells.
For assay [16] the target is unchanged. As to the kind of experiment: Inhibition of RNA polymerase II in mouse B16-F1 migrating cells assessed as fold change in U2surp-RNA stability at 0.1 mM measured by ChIP-seq analysis relative to control cells.
Assay [17] concerns the target Histone-lysine N-methyltransferase EZH2 (Mus musculus) (UniProt Q61188). As to the kind of experiment: Inhibition of EZH2 in mouse B16-F1 migrating cells assessed as fold change in H3K27me3-dependent regulated Plaur-mRNA expression at 3 uM measured by ChIP-seq analysis relative to control cells.
Assay [18] has the same target. Nature of the assay: Inhibition of EZH2 in mouse B16-F1 migrating cells assessed as fold change in H3K27me3-dependent regulated Sgk1-mRNA expression at 3 uM measured by ChIP-seq analysis relative to control cells.
The target is the same in assay [19]. Nature of the assay: Inhibition of EZH2 in mouse B16-F1 migrating cells assessed as fold change in H3K27me3-dependent regulated Smad6-mRNA expression at 3 uM measured by ChIP-seq analysis relative to control cells.
For assay [20] the target is unchanged. As to the kind of experiment: Inhibition of EZH2 in mouse B16-F1 migrating cells assessed as fold change in H3K27me3-dependent regulated Rassf7-mRNA expression at 3 uM measured by ChIP-seq analysis relative to control cells.
Assay [21] shares this target. Nature of the assay: Inhibition of EZH2 in mouse B16-F1 migrating cells assessed as fold change in H3K27me3-independent regulated Sfn-mRNA expression at 3 uM measured by ChIP-seq analysis relative to control cells.
Assay [22] shares this target. Nature of the assay: Inhibition of EZH2 in mouse B16-F1 migrating cells assessed as fold change in H3K27me3-independent regulated Atad2-mRNA expression at 3 uM measured by ChIP-seq analysis relative to control cells.
The target is the same in assay [23]. Nature of the assay: Inhibition of EZH2 in mouse B16-F1 migrating cells assessed as fold change in H3K27me3-buffered regulated Nudt17-mRNA expression at 3 uM measured by ChIP-seq analysis relative to control cells.
For assay [24] the target is unchanged. Nature of the assay: Inhibition of EZH2 in mouse B16-F1 migrating cells assessed as fold change in H3K27me3-buffered regulated Mvd-mRNA expression at 3 uM measured by ChIP-seq analysis relative to control cells.
Assay [25] has the same target. As to the kind of experiment: Inhibition of EZH2 in mouse B16-F1 migrating cells assessed as fold change in H3K27me3-buffered regulated Pgm2-mRNA expression at 3 uM measured by ChIP-seq analysis relative to control cells.
Assay [26] shares this target. Nature of the assay: Inhibition of EZH2 in mouse B16-F1 migrating cells assessed as fold change in H3K27me3-buffered regulated Ccdc88c-mRNA expression at 3 uM measured by ChIP-seq analysis relative to control cells.
Assay [27] has the same target. As to the kind of experiment: Inhibition of EZH2 in mouse B16-F1 migrating cells assessed as fold change in H3K27me3-buffered regulated Snhg17-mRNA expression at 3 uM measured by ChIP-seq analysis relative to control cells.
The target is the same in assay [28]. Nature of the assay: Inhibition of EZH2 in mouse B16-F1 migrating cells assessed as fold change in H3K27me3-buffered regulated Gas5-mRNA expression at 3 uM measured by ChIP-seq analysis relative to control cells.
Assay [29] shares this target. Nature of the assay: Inhibition of EZH2 in mouse B16-F1 migrating cells assessed as fold change in H3K27me3-buffered regulated Rab11fip4-mRNA expression at 3 uM measured by ChIP-seq analysis relative to control cells.
Assay [30] has the same target. Nature of the assay: Inhibition of EZH2 in mouse B16-F1 migrating cells assessed as fold change in H3K27me3-buffered regulated Ndst3-mRNA expression at 3 uM measured by ChIP-seq analysis relative to control cells.

Regarding `OC[C@H]1O[C@@H](n2cnc3cc(Cl)c(Cl)cc32)[C@H](O)[C@@H]1O`, the log2FC in assay [1] was 0.53; in assay [2] it was 0.5; in assay [3], 0.48; in assay [4], 0.4; in assay [5] it was -0.4; in assay [6] it was -0.49. For the same compound, the log2FC is -0.52 in assay [7]; -0.56 in assay [8]; -0.58 in assay [9]; -0.64 in [10]; -0.65 in assay [11]; -0.67 in assay [12]. In addition, the log2FC in [13] is -0.69; in [14], -0.81; in [15], -0.83; in assay [16], -0.85.

As for `CCCc1cc(C)[nH]c(=O)c1CNC(=O)c1cc(-c2ccnc(N3CCN(C)CC3)c2)cc2c1cnn2C(C)C`, the log2FC in assay [17] is 0.09; in [18] it was 0.33; in assay [19], 0.36; in assay [20], -0.48; in assay [21], 0.52; in assay [22], -0.48. In addition, the log2FC in assay [23] is 0.65; in assay [24], 0.45; in assay [25], 0.41; in assay [26] it was -0.38; in assay [27], -0.41; in assay [28], -0.42. The log2FC in [29] is -0.49; in assay [30], -0.57.
